The list shows a part of the results.

The target of this assay is T1, OsSMF1 (Oryza sativa, UniProt Q6ZLB0 1-436).
T1 sequence: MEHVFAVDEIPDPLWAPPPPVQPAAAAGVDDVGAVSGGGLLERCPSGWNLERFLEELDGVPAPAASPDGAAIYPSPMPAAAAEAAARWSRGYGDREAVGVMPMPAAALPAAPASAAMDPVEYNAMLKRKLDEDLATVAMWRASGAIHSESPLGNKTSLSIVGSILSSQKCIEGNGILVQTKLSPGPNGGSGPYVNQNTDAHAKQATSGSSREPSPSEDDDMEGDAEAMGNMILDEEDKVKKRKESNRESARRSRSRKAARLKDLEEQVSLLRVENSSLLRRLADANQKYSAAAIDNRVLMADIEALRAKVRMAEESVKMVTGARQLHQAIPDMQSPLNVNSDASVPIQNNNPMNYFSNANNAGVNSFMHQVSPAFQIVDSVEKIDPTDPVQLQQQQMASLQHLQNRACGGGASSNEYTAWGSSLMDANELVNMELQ
Put plainly: protein-binding microarray (RPBM); PBS, 2% BSA, 51.3 ng/ul salmon testes DNA, 50 uM zinc acetate, 200 nM TF, 25 C, 1 h; high values mean tight binding. The note with it: protein: recombinant; tags: N-terminal polyhistidine and DsRed monomer fusion (pET32a); chain copies: 2; label: CyDye5-dUTP incorporated in the synthesized complementary strand; 3' TTTTT single-stranded linker to array surface; dsDNA, one strand shown. The method in brief:
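Per-feature fluorescence intensity (arbitrary units), read on an Axon 4000B scanner, is the binding signal. Transcription factors carrying an N-terminal polyhistidine tag and DsRed fusion were expressed in E. coli BL21-CodonPlus and purified on Ni–NTA. A custom Agilent array, made double-stranded by primer extension with Cy5-dUTP and blocked with 2% BSA, was incubated with 200 nM protein in PBS, 2% BSA, salmon testes DNA and 50 µM zinc acetate at 25 °C for 1 h and then washed.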
Consider “TGAATTTCGCTTATGTACATACGTTGCTTTTACCACTAAACGGAGTCACCTAGTGCAG”, for which the binding signal is 3200 fluorescence intensity (a.u.).

As for “GGTGCCGGTGGCGAGGCGGTGGCGCTGCGTGCAGGTCATGCGGAGTCACCTAGTGCAG”, the binding signal is 3640 fluorescence intensity (a.u.).

For the sequence “CAGCCTCCTCGGCCGTCGCCCACGTGTCACGAGTGCGCTCCGGAGTCACCTAGTGCAG”, the binding signal is 23500 fluorescence intensity (a.u.).

For “AATGGGTAGTTTATGCTCTACTCTGCTGATTCAGGTGATGCGGAGTCACCTAGTGCAG”, the binding signal is 3410 fluorescence intensity (a.u.).

Consider “ATAACCGTAATTACCGAGCGGTTGCGTGACTTGCTGTTGCCGGAGTCACCTAGTGCAG”, for which the binding signal was 4270 fluorescence intensity (a.u.).

As to “AAAGGGACTAAACTTTGGTACCTGTCACATCGGATATTTGCGGAGTCACCTAGTGCAG”, the binding signal is 3980 fluorescence intensity (a.u.).

Consider “TGTATTGTGCCCACCCTTGCCCTCCTAGGCTACACCTCACCGGAGTCACCTAGTGCAG”, for which the binding signal was 4460 fluorescence intensity (a.u.).

“TCTCCAATCCAAGCTGACTCGACTAAAATGGCTTGATATTCGGAGTCACCTAGTGCAG”: the binding signal was 4400 fluorescence intensity (a.u.).

With “CAGTGCTTACACCATTTATGTAATGTGTCTCAATTGCAGTCGGAGTCACCTAGTGCAG”, the binding signal was 3150 fluorescence intensity (a.u.).

Consider “TCCCGTGACACCGGTGCTGTGGTCATCCGCCTTGCAGGCTCGGAGTCACCTAGTGCAG”, for which the binding signal was 27100 fluorescence intensity (a.u.).

Turning to “CATTTAAGGACACTGCCACCCTTTTGCAAGCCACAGGGGACGGAGTCACCTAGTGCAG”, the binding signal was 3690 fluorescence intensity (a.u.).

Take “TCTATGACTCGTTTATGATTACTTAATCTACCAGGCTCTTCGGAGTCACCTAGTGCAG”: the binding signal was 3740 fluorescence intensity (a.u.).

As to “GGGAGAGTGGGAGAGTGAGAGCGAGGTGGGGATCTGGGAGCGGAGTCACCTAGTGCAG”, the binding signal is 3210 fluorescence intensity (a.u.).

On to “ACTTGGGATTTGTTGAGTTGGCAACTTTGCTTGGCTCTGCCGGAGTCACCTAGTGCAG”, for which the binding signal was 4550 fluorescence intensity (a.u.).

Consider “AAAAGAAAATAAAATAGCAAAACTCTCAAAAGTAGCAATCCGGAGTCACCTAGTGCAG”, for which the binding signal is 23200 fluorescence intensity (a.u.).

Regarding “GTTCCCTTTGTATTTCACACCTTGAGATGGTGACTGATCCCGGAGTCACCTAGTGCAG”, the binding signal was 3940 fluorescence intensity (a.u.).

As to “GCTCGACCGTCGTCCGGACTCATGACGAGTGTCACACGGCCGGAGTCACCTAGTGCAG”, the binding signal is 3910 fluorescence intensity (a.u.).

For the sequence “AACCAAACGCTAGAAATCGCTCGTCACACATCAGTCCCGGCGGAGTCACCTAGTGCAG”, the binding signal was 4000 fluorescence intensity (a.u.).

Turning to “CGCTTCCGCTTCCTCTCCCTCTCATCTTCCTCGGCCCCATCGGAGTCACCTAGTGCAG”, the binding signal was 21700 fluorescence intensity (a.u.).

On to “CGAGAGAAACCTATGACGTCTGTAAATACCCTCCTTATTACGGAGTCACCTAGTGCAG”, for which the binding signal was 3700 fluorescence intensity (a.u.).

For the sequence “TCCGACCTCTACCATAAGACACATAAGATGATGGGGCAGACGGAGTCACCTAGTGCAG”, the binding signal is 4050 fluorescence intensity (a.u.).

Turning to “CAAAATGCTTTGACTGGATAGGATAAAACCATCTGGCCGCCGGAGTCACCTAGTGCAG”, the binding signal is 3140 fluorescence intensity (a.u.).

With “GCCTAACCCTAACCCTAGCCGCCACCGCTCAACCGCCTCCCGGAGTCACCTAGTGCAG”, the binding signal is 65100 fluorescence intensity (a.u.).

“GCCGCGCAATGACACGCTGGCACCTGGCCACGCGCCACGTCGGAGTCACCTAGTGCAG”: the binding signal is 9110 fluorescence intensity (a.u.).

As for “TCTGTAATCATCATCTTATTATCATCAACGGATGCATTGGCGGAGTCACCTAGTGCAG”, the binding signal is 32700 fluorescence intensity (a.u.).

Consider “TACTGAGTATTACTCCCTCTGTTTTAAAATGGTTGACACCCGGAGTCACCTAGTGCAG”, for which the binding signal was 20700 fluorescence intensity (a.u.).

“ATTGTTCTCACAGCTCATTACACATAGCCCGCTCGGTCATCGGAGTCACCTAGTGCAG”: the binding signal was 3610 fluorescence intensity (a.u.).

Consider “CTCCCCTCCTCTCTCCTCTCCATTCCTCCTCGCTTCGACACGGAGTCACCTAGTGCAG”, for which the binding signal is 21900 fluorescence intensity (a.u.).

Regarding “TCGATTTCAGTGACGTCTCGCTCGATCTCGTCAGCTTTCCCGGAGTCACCTAGTGCAG”, the binding signal is 4280 fluorescence intensity (a.u.).

As to “TAGTTTCACTTATTATTTATTTCAGTAAAAGAAAGTTTCCCGGAGTCACCTAGTGCAG”, the binding signal was 3690 fluorescence intensity (a.u.).

“GCAGCAGCTGCGTTGTCATCGTCCTCGTGTGCGGCTGGCCCGGAGTCACCTAGTGCAG”: the binding signal was 6820 fluorescence intensity (a.u.).

As to “ATACAAGCACCTCCATTGCAAGTTCCCAACACATATGCTACGGAGTCACCTAGTGCAG”, the binding signal is 3190 fluorescence intensity (a.u.).

With “GTGGATGTGATCCGCATGATTGATGTCATCATGAATATATCGGAGTCACCTAGTGCAG”, the binding signal is 3740 fluorescence intensity (a.u.).

As for “GTGAAGGCGAGACGGGGAAGAGGAGACTGCGTGGCGCCGCCGGAGTCACCTAGTGCAG”, the binding signal is 3550 fluorescence intensity (a.u.).

Turning to “CTTTATTAACGGTGTGGGGACTGGGGATTGGCTGAGGACGCGGAGTCACCTAGTGCAG”, the binding signal was 3310 fluorescence intensity (a.u.).

Turning to “TCTCTCTCTCTGTGTCAATGACAGGTGGGCCCCGTTCGTCCGGAGTCACCTAGTGCAG”, the binding signal is 4480 fluorescence intensity (a.u.).

Consider “CATAGATTACGTGTAAATTACAATGCGAATCTTTTAAACCCGGAGTCACCTAGTGCAG”, for which the binding signal is 8160 fluorescence intensity (a.u.).

As to “GTCGTTTCACAACTCACGCGTACACCGTGTGTCCTCACCACGGAGTCACCTAGTGCAG”, the binding signal was 3670 fluorescence intensity (a.u.).

As to “CTACTCCCCAGCAATGACACGTTCTCCCAGAGAGCCAATTCGGAGTCACCTAGTGCAG”, the binding signal is 4870 fluorescence intensity (a.u.).

In the case of “GTGGCAAGTGCACCCACGTTAGGGCAGTCCCAACCCTCCACGGAGTCACCTAGTGCAG”, the binding signal is 3370 fluorescence intensity (a.u.).

Turning to “CTTTCGTACGACTCGTCATTATCACCGTGTCTCTCGTAAGCGGAGTCACCTAGTGCAG”, the binding signal was 4540 fluorescence intensity (a.u.).

Take “ACGACGACCGGGCACCATCTCCGGCCGGCCGGGCACGGGCCGGAGTCACCTAGTGCAG”: the binding signal is 24300 fluorescence intensity (a.u.).
